# Source: PMC7349347
# Chains of the proteins cited; added tags and fusions are not shown.
# UniProt P26041: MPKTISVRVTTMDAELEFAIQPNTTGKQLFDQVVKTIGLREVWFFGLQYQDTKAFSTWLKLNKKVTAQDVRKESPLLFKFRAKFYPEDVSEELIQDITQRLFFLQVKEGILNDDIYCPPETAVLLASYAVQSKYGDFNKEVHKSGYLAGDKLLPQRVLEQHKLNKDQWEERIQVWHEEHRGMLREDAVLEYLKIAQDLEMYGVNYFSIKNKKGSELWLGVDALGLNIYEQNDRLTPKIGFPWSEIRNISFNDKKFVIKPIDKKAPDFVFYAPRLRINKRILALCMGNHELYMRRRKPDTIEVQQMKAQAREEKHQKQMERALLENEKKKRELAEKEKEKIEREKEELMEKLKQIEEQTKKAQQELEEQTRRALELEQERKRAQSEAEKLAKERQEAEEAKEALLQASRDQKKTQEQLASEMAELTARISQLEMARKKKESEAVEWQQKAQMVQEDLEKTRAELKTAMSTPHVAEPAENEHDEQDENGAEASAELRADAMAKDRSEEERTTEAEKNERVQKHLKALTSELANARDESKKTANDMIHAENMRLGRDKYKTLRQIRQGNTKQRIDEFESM
# No constants are given. Whether binding was seen depends on the method and setting. Binding seen in cells or lysates may run through a third protein. Some entries that bind do so weakly or less than the wild type.
# Assays:
# [1] = biological target: moesin (mouse (endogenous in bEND5)) (UniProt P26041); test: co-IP; endogenous proteins; bEND5 whole-cell lysate (0.025 M Tris, 0.15 M NaCl, 0.001 M EDTA, 1% NP-40, 5% glycerol, pH 7.4), 500 µg protein, precleared, antibody to PV-1, moesin, fodrin or Na,K-α overnight at 4 °C, Protein A/G Agarose, immunoblot; cells treated with vehicle, latrunculin A (time course) or ouabain, or transfected with control or annexin II siRNA
# [2] = biological target: moesin (mouse (endogenous in bEND5)) (UniProt P26041); test: condition: only cells not induced with latrunculin A; co-IP; as a1 with the moesin antibody, lysate of bEND5 cells not induced to form fenestrae (no latrunculin A)
binder,measurement,setting,value
"PV-1 (protein, UniProt Q91VC4 1-438) MGLSMDRSPYARTGDQQRGCWYYLRYFFLFVSLIQFLIILGLVLFMIYGNVHATTESSLRATEIRADSLYSQVVGLSASQANLSKQLNISLLVKETVMQQLLTTRREMERINASFRQCQGDLITYINYNRFIAAIILSEKQCQEQLKEVNKTCEALLFKLGEKVKTLEMEVAKEKAVCSKDKESLLAGKRQTEEQLEACGKARERQQQEQQVTEENLRKVQSLCIPLDQEKFQADVLSAWRDSLIYRTLETLPYHYQLMPEYASLRRTCESLPGIMTTKIEELARGLRAGIERVTRENAELRRQKLELERAAQAAQEARARAGTEAQARETQLRAECARQTQLALEEKAALRAQRDNLERELEARKRELEQLRTEVDVRISALDTCVKAKSLPAVPPRVSGPPPNPPPIDPASLEEFKKRILESQRLPVVNPAAQPSG",binding,[1],binds
same,binding,[2],no binding
